PubChem BioAssay AID1347076 (National Center for Advancing Translational Sciences (NCATS), 2019)
Hit rate of the full screen: of about 400,000 compounds, about 13,000 (3.2%) were called active. The shares of active, inactive and inconclusive entries below differ from those in the screen. Calls follow the shape of the dose curve; as a rule, active = well fitted cell-killing curve with a large enough effect; inconclusive = small, poorly fitted or top-dose-only effect, or effect the other way; inactive = flat fitted curve, though single readings scatter. Potencies of inconclusive entries are doubtful fits and often do not repeat.

Assay: qHTS assay for MDR1-selective chemotherapeutics: Primary screen using the drug-selected MDR subline cells KB-V1; also: nearly all actives have a fitted effect of over 60% in size
Conditions: KB-V1 MDR cells viability, CellTiter-Glo, 72 h; activity change, negative = cytotoxicity: at 46.1 µM (top of the series)
Summary of the method: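 KB-V1, DMEM (no phenol red) + 10% FBS; cpd pin-transferred, titration series; 72 h, 37 degrees C; CellTiter-Glo, luminescence. Data normalized, curve-fit.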
% is scaled to controls: 0 for no effect and ±100 for the full control effect; potency is read from the fitted curve at half-maximal effect.

Row | Structure (SMILES) | Potency | activity change, negative = cytotoxicity
1 | Cc1ccc(-c2nc3c(Cl)cc(Cl)cc3c(=O)n2O)cc1 | inactive | 
2 | COc1cccc(C(=O)NCCS(=O)(=O)N2CCCC2)c1 | inactive | 
3 | O=C(NCC(c1ccco1)N1CCCC1)c1ccc(Cl)c(S(=O)(=O)N2CCc3ccccc32)c1 (stereo not drawn) | active: 1.64 µM | 
4 | Cc1ccc(Cn2cccc2C2=NC(C)(C)CO2)cc1 | inconclusive: 9.2 µM [rising, partial curve] | 
5 | O=C(OCC(=O)c1ccc(Cl)s1)c1ccc(CO)cc1 | inconclusive: 13 µM [rising, single point] | 
6 | COc1ccc(S(=O)(=O)NCCSCc2ccccc2C)cc1Br | inconclusive: 18.4 µM [cytotoxic, single point] | 
7 | O=S(=O)(c1ccc(F)cc1)N1CCN=C1SCc1cccc(F)c1 | inconclusive: 4.61 µM [cytotoxic, full curve] | 
8 | Cn1c(NC(=O)c2ccccc2F)cc(=O)n(C)c1=O | inconclusive: 18.4 µM [rising, partial curve] | 
9 | Cc1cc(=O)oc2c(C)c(OC(C)C(=O)NC(Cc3c[nH]c4ccc(O)cc34)C(=O)O)ccc12 (stereo not drawn) | inconclusive: 29.1 µM [rising, single point] | 
10 | CCc1nn(CCCC(=O)NCc2ccccc2Br)c(=O)c2cc3occc3n12 | inactive | 
11 | CCCC(=O)N1c2ncnn2C2(CCCCC2)[C@@H]2CCCC[C@@H]21 | inactive | 
12 | O=C1NC(=NCc2ccccc2)S/C1=C/c1ccc(O)cc1 | inconclusive: 14.6 µM [cytotoxic, partial curve] | 
13 | CCn1c2ccccc2c2cc(NC(=O)CSc3nnc(-c4ccc(OC)c(OC)c4)n3N)ccc21 | inactive | 
14 | CCCCCCN1C[C@H](O)[C@@H](n2cc(-c3ccc(F)cc3)nn2)C[C@@H]1c1ccc(Cl)cc1 | inconclusive: 20.6 µM [cytotoxic, single point] | 
15 | COc1ccc(N(CC(=O)Nc2ccccc2OC)S(=O)(=O)c2ccc(NC(C)=O)cc2)cc1 | inconclusive: 29.1 µM [cytotoxic, single point] | 
16 | Cc1cc(C)cc(NC(=O)c2ccc(NC(=O)c3ccco3)cc2)c1 | inconclusive: 23.1 µM [cytotoxic, single point] | 
17 | COc1cc2nc(SCC(=O)NCc3ccco3)n(Cc3ccc(Cl)cc3)c(=O)c2cc1OC | inconclusive: 3.66 µM [cytotoxic, partial curve, poor fit] | 
18 | CCOC1=C2[C@@H](CN(S(=O)(=O)c3ccc(C)cc3)[C@H]2c2ccccc2F)[C@H]2C(=O)N(c3ccccc3)C(=O)[C@H]2C1 | inactive | 
19 | CCOc1ccc(NC(=O)CN(C)C(=O)c2ccccc2Cc2ccccc2)cc1OCC | inconclusive: 18.4 µM [cytotoxic, single point] | 
20 | CCOC(=O)N1CCN(c2cc(C)c([N+](=O)[O-])cc2F)CC1 | inconclusive: 20.6 µM [cytotoxic, single point] | 
21 | COc1ccc(C(=O)Nc2nc(CC(=O)NCCc3ccccc3)cs2)cc1 | inconclusive: 23.1 µM [cytotoxic, single point] | 
22 | CN(O)/C=C1\C(=O)Nc2ccccc21 | inconclusive: 10.3 µM [rising, partial curve, poor fit] | 
23 | CC(=O)c1cccc(NC(=O)C2C3C=CC(C4CC34)C2C(=O)O)c1 (stereo not drawn) | inconclusive: 23.1 µM [cytotoxic, single point] | 

Row | Structure (SMILES) | Potency | activity change, negative = cytotoxicity
24 | O=C(Nc1nc(-c2ccccc2)c(-c2ccccc2)o1)c1ccc(F)cc1 | inconclusive: 7.31 µM [cytotoxic, partial curve] | 
25 | Cc1ccc(S(=O)(=O)NCCc2nnc3ccc(SCc4ccccc4C)nn23)cc1 | inactive | 
26 | CCOC(=O)[C@@H](NC(=O)/C=C/[C@H]1O[C@@H](n2cc(C)c(=O)[nH]c2=O)C[C@@H]1O)C(C)C | inactive | 
27 | O=C(O)c1ccc2c(c1)SC1=NS(=O)(=O)CCN12 | inconclusive: 29.1 µM [rising, single point] | 
28 | O=C(CCC(=O)N/N=C/c1ccccc1O)NCc1ccccc1 | inconclusive: 29.1 µM [cytotoxic, single point] | 
29 | CCCCn1c(SCc2ccc(Cl)cc2)nc2c1c(=O)[nH]c(=O)n2C | inconclusive: 29.1 µM [cytotoxic, single point] | 
30 | CCOc1ccc(Br)cc1/C=N/NC(=O)c1ccncc1 | inactive | 
31 | Nc1nc(Cl)nc(N(c2ccccc2)c2ccccc2)n1 | inactive | 
32 | O=C(Nc1ccc(Cc2ccncc2)cc1)c1ccc(S(=O)(=O)N2CCOCC2)cc1 | inconclusive: 25.9 µM [cytotoxic, single point] | 
33 | CCN(CC)S(=O)(=O)c1ccc(N2CCCC2)c(NC(=O)CC(C)(C)C)c1 | inconclusive: 1.64 µM [cytotoxic, full curve] | 
34 | COc1ccc(/C=C2\CCc3ccccc3C2=O)cc1Cn1cccn1 | inconclusive: 20.6 µM [cytotoxic, partial curve] | 
35 | CCOC(=O)c1ccccc1NC(=O)CN(c1ccccc1OCC)S(C)(=O)=O | inconclusive: 1.46 µM [cytotoxic, full curve] | 
36 | S=C(Nc1ccc(Br)cc1)NC1CCN(Cc2ccccc2)CC1 | inconclusive: 25.9 µM [cytotoxic, single point] | 
37 | O=S(=O)(Nc1cccc(S(=O)(=O)N2CCCC2)c1)c1cccs1 | inactive | 
38 | COc1ccc(CCNC(=O)C(=O)NCC2OCCN2S(=O)(=O)c2ccc(Br)cc2)cc1OC (stereo not drawn) | inactive | 
39 | Cc1ccc(N2CC(C(=O)OCC(=O)Nc3c(C)cccc3C)CC2=O)cc1 (stereo not drawn) | inconclusive: 20.6 µM [rising, single point] | 
40 | CC(=O)c1cccc(OCC(=O)c2cc(C)n(-c3cc(C)on3)c2C)c1 | inconclusive: 20 µM [cytotoxic, single point] | 
41 | S=c1nc[nH]c2c1ncn2-c1ccc(Cl)cc1 | active: 10.3 µM | 
42 | Cc1cc(=O)[nH]c(SCCCOc2ccc3c(c2)CCC3)n1 | inconclusive: 18.4 µM [cytotoxic, single point] | 
43 | Cc1ccc(NC(=O)N2CCCN(Cc3ccc(F)cc3)C2)cc1C | inconclusive: 29.1 µM [cytotoxic, single point] | 
44 | COc1cc(-c2coc3c(C(=O)NCc4ccncc4)cccc23)ccc1O | inconclusive: 5.17 µM [cytotoxic, full curve] | 
45 | CCCC(=Nc1ccccc1)C1=C(O)C(C(=O)OC)C(C)(C)CC1=O (stereo not drawn) | inconclusive: 0.651 µM [rising, full curve, poor fit] | 
46 | CC(NC(=O)Cc1ccc(S(=O)(=O)N2CCOCC2)s1)c1ccc(Br)cc1 (stereo not drawn) | inconclusive: 18.4 µM [cytotoxic, partial curve, poor fit] | 

Row | Structure (SMILES) | Potency | activity change, negative = cytotoxicity
47 | Clc1ccc(-c2nc3ncccn3c2Cl)cc1 | inconclusive: 0.517 µM [rising, full curve] | 
48 | Cc1ccc(S(=O)(=O)N2CCN(C(=O)COC(=O)CNC(=O)c3ccc(Cl)cc3Cl)CC2)cc1 | inconclusive: 20.6 µM [rising, partial curve, poor fit] | 
49 | Cc1nc(NC(=O)CN(C)S(=O)(=O)c2ccc(Cl)cc2)sc1C | active: 14.6 µM | 
50 | CCOC(=O)N1CCC(NC(=O)C2CCCN(Cc3nc(-c4cccc(Cl)c4)oc3C)C2)CC1 (stereo not drawn) | inactive | 
51 | Nc1nncn1C(=O)CCCOc1ccc(Cl)cc1Cl | inconclusive: 0.517 µM [rising, full curve] | 
52 | COc1ccc(C=C(C(=O)c2ccccc2)c2ccccc2)cc1 | inconclusive: 16.4 µM [cytotoxic, single point] | 
53 | CCOC(=O)c1c(NC(=O)CN2CCN(C)CC2)sc(C(=O)Nc2ccccc2)c1C | inactive | 
54 | Cc1ccc(NC(=O)NNC(=O)c2cc3ccccc3cc2O)cc1C | inconclusive: 7.31 µM [rising, full curve, poor fit] | 
55 | N#Cc1ccccc1NC(=S)NC(=O)c1cccnc1 | inactive | 
56 | COc1cccc(-c2nc(NCc3ccco3)c3ccccc3n2)c1O |  | inconclusive: -34.1% [cytotoxic]
57 | COc1ccc(NC(=O)CN(C)C(=O)c2sc3cc(Cl)ccc3c2Cl)cc1 | inconclusive: 23.1 µM [cytotoxic, single point] | 
58 | CCC(CO)Oc1cc(NCc2ccccc2Cl)c2ncn(C(C)C)c2c1 (stereo not drawn) | inconclusive: 32.6 µM [cytotoxic, single point] | 
59 | O=C(O)C(=O)/C(=C\c1cccc2ccccc12)c1ccc2ccccc2n1 | inconclusive: 18.4 µM [cytotoxic, single point] | 
60 | COc1ccc(C(=O)Nc2ccc(SC(F)F)cc2)cc1 | inconclusive: 6.51 µM [cytotoxic, partial curve, poor fit] | 
61 | Cc1ccc(OCC(=O)N2CCN(c3nnc(-c4ccccc4)c4ccccc34)CC2)cc1 | active: 4.11 µM | 
62 | O=C1NC(=O)C(Cc2ccccc2)(c2cccnc2)N1 (stereo not drawn) | inconclusive: 29.1 µM [rising, single point] | 
63 | COc1ccc(N2CCN(C(=O)c3oc4ccccc4c3NC(=O)Cc3ccc(OC)c(OC)c3)CC2)cc1 |  | inconclusive: -75.8%
64 | O=C(Cc1ccc(Cl)cc1)N/N=C/c1cccs1 | inconclusive: 29.1 µM [rising, single point] | 
65 | COc1ccc2c(c1)CCc1c(C(=O)Nc3cc(C)n(Cc4ccc(Cl)cc4)n3)noc1-2 | inactive | 
66 | C[C@H]1CN([C@@H](C)CO)C(=O)CCCn2cc(nn2)CO[C@@H]1CN(C)C(=O)c1ccncc1 | inconclusive: 29.1 µM [cytotoxic, single point] | 
67 | Cc1cc(C)c2oc(C(=O)Nc3sc4c(c3C(=O)NCc3ccco3)CCC4)cc(=O)c2c1 | inconclusive: 29.1 µM [rising, single point] | 
68 | CCCOc1ccc(C2C(C(=O)c3ccc(C)o3)=C(O)C(=O)N2CCCn2ccnc2)cc1 (stereo not drawn) | inconclusive: 32.6 µM [cytotoxic, single point] | 
